Literature values in PMC10499415 (Clinical and Translational Science, 2023).

Legend:
[1] = patients with cancer and healthy subjects; cited from earlier work
[2] = healthy male adults; cited from earlier work

For `C=CC(=O)N1CC[C@H](n2nc(C#Cc3cc(OC)cc(OC)c3)c3c(N)ncnc32)C1` [futibatinib, Futibatinib], the “time to maximum plasma concentration (T max)” value [1] is given as ~ 2 h and the “radioactivity recovered in feces” value [2] is given as “More than 90%”.
